The values below come from PMC2323224.

Protein sequences, listed by entry. Tags and fused reporters are not part of them.
UniProt Q0PBP3: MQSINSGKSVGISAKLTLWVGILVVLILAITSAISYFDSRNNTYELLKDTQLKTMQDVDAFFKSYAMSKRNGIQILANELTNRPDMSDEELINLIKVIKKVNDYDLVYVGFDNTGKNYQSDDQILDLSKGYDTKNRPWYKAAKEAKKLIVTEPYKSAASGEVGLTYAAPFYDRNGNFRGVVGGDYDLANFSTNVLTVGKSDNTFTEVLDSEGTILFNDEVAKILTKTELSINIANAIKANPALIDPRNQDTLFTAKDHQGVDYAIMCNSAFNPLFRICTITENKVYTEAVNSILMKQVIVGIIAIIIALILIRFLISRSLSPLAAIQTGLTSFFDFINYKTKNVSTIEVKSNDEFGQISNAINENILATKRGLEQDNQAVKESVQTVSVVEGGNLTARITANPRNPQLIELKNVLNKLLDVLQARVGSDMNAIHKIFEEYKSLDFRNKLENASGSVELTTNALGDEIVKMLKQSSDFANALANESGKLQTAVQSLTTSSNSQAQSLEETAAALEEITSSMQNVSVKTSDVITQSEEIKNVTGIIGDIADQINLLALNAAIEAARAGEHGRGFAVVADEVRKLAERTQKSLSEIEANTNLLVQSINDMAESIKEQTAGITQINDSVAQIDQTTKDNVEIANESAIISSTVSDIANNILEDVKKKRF

No constants are given. Whether binding was seen depends on the method and setting. Some entries that bind do so weakly or less than the wild type.

Common to all, as to test: two-hybrid; LexA-based yeast two-hybrid; full length ORFs as LexA BD fusions (MAL62 promoter, strain Y309) mated with AD fusions (GAL1 promoter, strain RFY231); two-phase pooled matrix screen plus a library screen of 94 BD strains; LEU2 and lacZ reporters, background-corrected combined score >= 1; positives retested in one-on-one matings
Assay [1] deals with T1, CheA (C. jejuni NCTC11168) (UniProt Q0PBM2).
T1 sequence: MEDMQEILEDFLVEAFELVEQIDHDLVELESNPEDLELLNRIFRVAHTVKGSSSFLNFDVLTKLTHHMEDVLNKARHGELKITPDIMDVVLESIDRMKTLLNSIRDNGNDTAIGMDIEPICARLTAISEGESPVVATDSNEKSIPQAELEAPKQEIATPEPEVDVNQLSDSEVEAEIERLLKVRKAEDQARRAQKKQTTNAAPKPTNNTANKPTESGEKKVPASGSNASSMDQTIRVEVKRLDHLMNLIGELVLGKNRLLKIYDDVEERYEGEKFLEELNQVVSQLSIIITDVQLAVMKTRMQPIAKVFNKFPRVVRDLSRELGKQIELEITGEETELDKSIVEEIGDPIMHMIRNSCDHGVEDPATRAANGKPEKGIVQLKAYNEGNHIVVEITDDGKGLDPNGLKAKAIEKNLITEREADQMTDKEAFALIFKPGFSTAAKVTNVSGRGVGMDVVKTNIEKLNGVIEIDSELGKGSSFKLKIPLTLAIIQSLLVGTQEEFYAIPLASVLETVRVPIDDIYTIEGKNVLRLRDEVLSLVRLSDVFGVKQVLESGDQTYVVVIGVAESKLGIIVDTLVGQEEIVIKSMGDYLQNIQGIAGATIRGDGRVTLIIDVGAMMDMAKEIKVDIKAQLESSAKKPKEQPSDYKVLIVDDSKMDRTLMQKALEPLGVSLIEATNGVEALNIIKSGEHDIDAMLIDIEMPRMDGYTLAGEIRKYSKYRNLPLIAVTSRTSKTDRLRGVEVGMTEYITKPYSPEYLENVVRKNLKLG

Assay [2] has as its target CheW (C. jejuni NCTC11168) (UniProt Q0PBM3).
Substrate in assay [3]: T2, SSB (C. jejuni NCTC11168) (UniProt O69302)
T2 sequence: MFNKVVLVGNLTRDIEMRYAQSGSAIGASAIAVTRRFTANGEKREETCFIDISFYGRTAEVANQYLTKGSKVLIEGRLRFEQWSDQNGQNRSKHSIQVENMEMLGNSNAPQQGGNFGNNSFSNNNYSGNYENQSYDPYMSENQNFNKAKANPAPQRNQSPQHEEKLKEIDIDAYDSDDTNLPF

The target in assay [4] is T3, ExbD3 (C. jejuni NCTC11168) (UniProt Q0PC27).
T3 sequence: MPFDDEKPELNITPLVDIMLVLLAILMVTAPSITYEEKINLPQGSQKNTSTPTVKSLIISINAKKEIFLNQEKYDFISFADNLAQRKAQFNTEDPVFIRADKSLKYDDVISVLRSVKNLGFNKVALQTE

For assay [5], the target named is T4, DnaN (C. jejuni NCTC11168) (UniProt Q0PCC3).
T4 sequence: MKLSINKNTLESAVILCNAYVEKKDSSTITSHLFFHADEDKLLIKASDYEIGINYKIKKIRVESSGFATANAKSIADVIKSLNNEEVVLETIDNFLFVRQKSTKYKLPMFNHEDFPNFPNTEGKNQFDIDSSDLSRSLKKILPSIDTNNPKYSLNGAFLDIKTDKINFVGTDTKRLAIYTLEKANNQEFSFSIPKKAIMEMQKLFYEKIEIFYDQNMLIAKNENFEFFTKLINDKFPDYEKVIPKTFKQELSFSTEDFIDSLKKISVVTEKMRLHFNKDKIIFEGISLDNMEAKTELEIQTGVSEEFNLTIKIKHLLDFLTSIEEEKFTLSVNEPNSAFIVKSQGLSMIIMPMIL

The target in assay [6] is T5, IlvH (C. jejuni NCTC11168) (UniProt Q0PAU2).
T5 sequence: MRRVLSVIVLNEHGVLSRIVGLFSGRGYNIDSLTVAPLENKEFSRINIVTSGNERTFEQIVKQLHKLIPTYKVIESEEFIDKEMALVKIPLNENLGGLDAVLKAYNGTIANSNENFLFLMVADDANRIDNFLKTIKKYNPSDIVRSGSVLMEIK

The target in assay [7] is T6, FabG (C. jejuni NCTC11168) (UniProt Q0PB75).
T6 sequence: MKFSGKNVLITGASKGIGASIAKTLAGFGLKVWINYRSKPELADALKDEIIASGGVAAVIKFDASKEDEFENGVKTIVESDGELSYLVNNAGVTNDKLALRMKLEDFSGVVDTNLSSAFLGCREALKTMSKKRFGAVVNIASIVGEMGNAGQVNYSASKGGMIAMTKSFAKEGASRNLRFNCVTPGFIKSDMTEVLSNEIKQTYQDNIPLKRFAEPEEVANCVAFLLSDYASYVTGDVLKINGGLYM

For assay [8], the target named is T7, TrxB (C. jejuni NCTC11168) (UniProt Q0PBZ1).
T7 sequence: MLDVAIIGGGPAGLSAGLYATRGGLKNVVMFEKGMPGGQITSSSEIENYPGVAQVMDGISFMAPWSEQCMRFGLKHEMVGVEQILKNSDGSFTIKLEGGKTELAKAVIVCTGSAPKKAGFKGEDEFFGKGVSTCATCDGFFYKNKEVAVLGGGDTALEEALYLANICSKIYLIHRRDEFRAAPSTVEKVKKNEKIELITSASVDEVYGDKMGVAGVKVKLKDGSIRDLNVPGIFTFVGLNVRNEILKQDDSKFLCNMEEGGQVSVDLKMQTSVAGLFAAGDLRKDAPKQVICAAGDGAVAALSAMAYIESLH

On to CheW (from UniProt Q0PBM3 1-173), for which the binding entry in assay [1] is listed as “binds”.
With Cj0262c (from UniProt Q0PBP3 1-665), the binding entry in assay [2] is listed as “binds”.

B1: RecJ (protein, UniProt Q0PC97 1-523)
chain: MKIINKNEIKKILASRFEKDLHTKLCDLPLPCCLKDAYKAANRIKEAVEKNEKVAIVGDYDVDGIISCVIMAEFFDDIGFDYIIRIPNRFKDGYGLNAEIINELDVNLIITVDNGIAALEAAKLCKEKNIDLIITDHHMPQDILPDAFAIINPKQKDCDFPEIEICGAQVAWYLIAALKEVCKLKYDMCKFLELLAIAIVADMMELRDLNRALVRRGIDHINKSKRAAFRAIKHYYQKDKFALDNIGFLIAPLINSAGRMDDASISYEFLHTKDFNKALEYLEQIVSFNESRKDEEKQLFEDSLNQIDENDSCIVVSGLNWHEGVLGIVASRLAKHFNKPAFVFSQNEEHLKGSARSVGKIDILALISKTNSILSNYGGHKGAAGISLNSENFEQFKNKIKKECSQISESEFLDTDEILGILEPSEIDFEMLEILESFEPFGHKNPRPFFVLENLCVKNKKLLGKDEKHLKLVLTKENKTIEALFFNFDKEPELNQNISLLGSISKNEFRGMVTPQFVVKEIL
On to B1, for which, in assay [3], the binding entry is “binds”.

B2: ExbD1 (protein, UniProt Q0PBV9 1-136)
chain: MIKTEMAHKEEELSEINITPFIDIMLVLLIVFMAVTPLITSSIKIELPKSSQQAEDKLKNPIILYLNTDNTLAINDDKLSLENLSSALDIKTKGNKEEIIYFHIDKSVKYEDIMQVMQKLKENGYGKIALSSKKMD
On to B2, for which the binding result in assay [4] is recorded as “binds”.

B3: DnaX (protein, UniProt Q0P999 1-509)
chain: MLQALAIKYRPKTFDELIGQKTVSVSLKYALNHNRLAHAYLFSGLRGSGKTSSARIFSRALVCEQGPSDTPCGTCKHCLAALEGKHIDIIEMDAASNRGLEDIQALIEQTKYTPSMARFKIFIIDEVHMLTPQAANALLKTLEEPPSYVKFILATTDPLKLPATVLSRTQHFRFKQIPQSEILNHLKEILLKENVKFEEEALKFIARSGNGSLRDTLTLLDQAIIFCQNEISISKITDMLGFLDPQKIKAFYQAILTKDKEKVFVYLEELQDYEASSVIDEMLFYLKESFFAKSTEFSTLIYERFFRILSKAKNMLCDDDGFTLCVMAFMMMEASHLKEIDAQIQEIKQENTTNIISRITPSPIIPHLEKKTEKNAYEILLDSIYDRDFDLAECFKQSTNFISFENNTLNINSNAQGQNRDTLNKGFKLIQELFKAKFGENAKINVQKALTIDENKLQSLTQELPNNENKNIDIQSSINMLKEGAKKFDPQEDLKEALKDCFGEPSIEN
As for B3, the binding result in assay [5] was “binds”.

B4: IlvI (protein, UniProt Q0PAU3 1-566)
chain: MKELSGSAMICEALKEENVKIVFGYPGGAALNIYDEIYNQKYFKHILVRHEQAALHAADAYARMSGEVGVAIVTSGPGFTNTITGLATAYSDSIPLVLISGQVANSLIGTDAFQEIDAVGISRPCVKHNYLVTCIEEFPRILKEAFYIARSGRPGPVHIDVPKDVSATLGLWEYSKEISMKTYKPVYKGNSKQIKKFAELLKEAKRPLFYLGGGCISSNASEQIRELIKFTKIPAVETLMALGTLRSDDVFNLKMAGMHGSYAANMALSECDLLVSVGARFDDRITGKTSEFAKHATIVHVDIDPSSISKIINAHYPIVGDIKEVLKELLEELKKENFNTTFKEWHETLKRYNELYPLSYEDSNEILKPQWVIEECAKMAPDARIITDVGQHQMWVAQFYPFNYPRQLATSGGQGTMGYSLPAALGAKLAVGEEVVINFVGDGSVLMNIQELMTAYEYGIKAINIILNNAFLGMVRQWQSMFYKEHFSQTDLSTQPDFIKIAQGFGCEGYEISNKEEFIQAFSQALKSDKTSLLNVKIDRFEDVLPMVPAGGAIYNMILPKAKDRQ
Take B4: the binding result in assay [6] is listed as “binds”.

B5: FabF (protein, UniProt Q0PB68 1-404)
chain: MKRVVVTGIGMINALGLDKESSFKAICNGESGVNKITLFDATDFPVQIAAEVKNFDPLEVVDGKEVKKIDRFIQLGIKAAREAMQDAGFSEELDKEEFGIVSASGIGGLPNIEKNSIICSERGPRKISPFFIPSALVNMLGGLISIEHGLKGPNISCVTACAAGTHAIGEAYKSIALGNAKKMLVIGAEAAICPVGIGGFASMKALSTRNEDPQHASRPFDKERDGFVMGEGAGALVFEEYEEAKKRGATIYAELIGFGESADAHHITSPTLDGPLRAMKKALNMAGNPKVDYINAHGTSTPVNDKNETAAIKELFGNNIPLISSTKGQTGHCLGAAGAIEAVVSVMVLRDGVVPPTINQLVKDDECDLDYIPNISRKVDLKVVMSNSFGFGGTNGCVVFKKVD
On to B5, for which, in assay [7], the binding entry is on record as “binds”.

B6: TrxA (protein, UniProt Q0PBZ0 1-104)
chain: MGKYIELTSDNFAQAKEGVALVDFWAPWCGPCRMLAPVIDELSNDFDGKAKICKVNTDEQGDLAAEFGVRSIPTLIFFKNGEVVDQLVGAQSKQAISDKLNSLL
B6: in assay [8], the binding entry is listed as “binds”.
